# Data reported in the M2OR odorant receptor database.
# Chains of the proteins cited; added tags and fusions are not shown. Chains listed by the source or under a name are the forms on record and can include a tag or linker.
# O4C46, as listed by the source: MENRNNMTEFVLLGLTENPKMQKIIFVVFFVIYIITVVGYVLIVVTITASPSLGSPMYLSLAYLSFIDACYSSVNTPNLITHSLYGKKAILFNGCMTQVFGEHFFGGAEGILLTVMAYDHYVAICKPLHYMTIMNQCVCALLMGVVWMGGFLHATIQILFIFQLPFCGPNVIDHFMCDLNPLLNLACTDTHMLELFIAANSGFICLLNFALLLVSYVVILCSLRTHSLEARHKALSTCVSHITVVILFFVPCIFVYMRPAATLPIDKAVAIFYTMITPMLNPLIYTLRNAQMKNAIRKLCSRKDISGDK
# O4A15, as listed by the source: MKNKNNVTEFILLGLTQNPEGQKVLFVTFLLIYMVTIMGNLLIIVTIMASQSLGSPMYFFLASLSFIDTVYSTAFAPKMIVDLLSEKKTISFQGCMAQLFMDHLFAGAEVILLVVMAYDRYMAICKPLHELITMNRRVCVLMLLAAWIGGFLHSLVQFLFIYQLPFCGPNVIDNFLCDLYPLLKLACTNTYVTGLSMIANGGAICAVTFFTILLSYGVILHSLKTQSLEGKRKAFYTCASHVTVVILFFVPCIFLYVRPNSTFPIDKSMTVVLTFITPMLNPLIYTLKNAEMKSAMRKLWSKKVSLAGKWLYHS
# O4F17, as listed by the source: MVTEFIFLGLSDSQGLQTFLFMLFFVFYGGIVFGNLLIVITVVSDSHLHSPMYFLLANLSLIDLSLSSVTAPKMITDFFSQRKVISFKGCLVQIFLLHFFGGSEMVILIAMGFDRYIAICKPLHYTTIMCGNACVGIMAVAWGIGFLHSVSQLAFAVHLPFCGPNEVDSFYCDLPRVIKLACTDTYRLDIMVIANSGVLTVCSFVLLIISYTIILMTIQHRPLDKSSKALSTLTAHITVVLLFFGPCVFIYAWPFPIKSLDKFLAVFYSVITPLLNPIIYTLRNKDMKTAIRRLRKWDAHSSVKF
# Changes are numbered by the printed parent chain. Only a part is listed here, and it is no random draw. The calls were merged from several studies; some rest on single wells. The list shows a part of the results.
# Assays:
# Settings in all cases: stereoisomer not certain
# O2T11 = test system: T1, O2T11
# T1 sequence (whole entry): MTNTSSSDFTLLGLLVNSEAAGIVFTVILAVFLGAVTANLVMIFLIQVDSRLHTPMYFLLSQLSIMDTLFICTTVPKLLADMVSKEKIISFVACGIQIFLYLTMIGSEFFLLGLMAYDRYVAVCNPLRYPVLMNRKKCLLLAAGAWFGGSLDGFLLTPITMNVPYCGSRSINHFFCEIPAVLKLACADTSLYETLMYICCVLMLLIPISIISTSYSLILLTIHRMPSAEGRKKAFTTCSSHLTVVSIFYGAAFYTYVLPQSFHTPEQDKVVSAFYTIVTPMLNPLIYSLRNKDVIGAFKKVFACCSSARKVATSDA
# In short: (§1)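 Values were gathered from published papers (main text and supplementary material), with extra details requested from the original authors when needed, and checked for typos and inconsistencies. Each receptor–molecule pair is called responsive (active) if the original authors judged the measured signal statistically different from baseline, and non-responsive (inactive) otherwise. Assay methods varied by source, often transient mammalian cell-line luciferase assays. Recorded details include cell line, G-protein, co-transfected protein and tags.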
# O2T29 [1] = test system: T2, O2T29
# T2 sequence (whole entry): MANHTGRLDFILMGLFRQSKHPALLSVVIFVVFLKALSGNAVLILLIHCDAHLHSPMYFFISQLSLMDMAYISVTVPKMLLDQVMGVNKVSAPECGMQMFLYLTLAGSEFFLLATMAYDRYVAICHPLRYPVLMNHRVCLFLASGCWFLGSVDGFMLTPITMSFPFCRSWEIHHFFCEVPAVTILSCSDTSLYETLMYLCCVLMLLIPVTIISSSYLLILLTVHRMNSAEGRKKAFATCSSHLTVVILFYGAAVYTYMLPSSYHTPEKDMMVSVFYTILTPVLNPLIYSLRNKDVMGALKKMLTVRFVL
# In short: as §1
# O2T29 [2] = test system: T3, O2T29; remark: listed apart in the source
# T3 sequence (whole entry): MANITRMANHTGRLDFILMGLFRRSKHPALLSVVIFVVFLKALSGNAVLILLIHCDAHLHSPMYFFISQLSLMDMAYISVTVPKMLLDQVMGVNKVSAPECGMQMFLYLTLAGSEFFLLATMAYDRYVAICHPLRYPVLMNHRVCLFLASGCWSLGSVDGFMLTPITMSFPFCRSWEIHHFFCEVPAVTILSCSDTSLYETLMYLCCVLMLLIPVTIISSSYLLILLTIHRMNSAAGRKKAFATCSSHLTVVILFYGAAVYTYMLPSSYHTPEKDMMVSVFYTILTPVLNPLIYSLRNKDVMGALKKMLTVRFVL
# In short: as §1
# O2T33 = test system: T4, O2T33
# T4 sequence (whole entry): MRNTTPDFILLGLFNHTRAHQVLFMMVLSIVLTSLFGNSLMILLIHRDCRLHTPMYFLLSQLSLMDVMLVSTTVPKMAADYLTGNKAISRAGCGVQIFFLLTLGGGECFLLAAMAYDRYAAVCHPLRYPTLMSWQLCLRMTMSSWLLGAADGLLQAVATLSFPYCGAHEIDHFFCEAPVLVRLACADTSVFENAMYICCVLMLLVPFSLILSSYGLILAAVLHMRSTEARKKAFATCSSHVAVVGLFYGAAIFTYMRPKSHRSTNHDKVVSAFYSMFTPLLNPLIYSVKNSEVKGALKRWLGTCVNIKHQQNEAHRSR
# In short: as §1
# O2T34 = test system: T5, O2T34
# T5 sequence (whole entry): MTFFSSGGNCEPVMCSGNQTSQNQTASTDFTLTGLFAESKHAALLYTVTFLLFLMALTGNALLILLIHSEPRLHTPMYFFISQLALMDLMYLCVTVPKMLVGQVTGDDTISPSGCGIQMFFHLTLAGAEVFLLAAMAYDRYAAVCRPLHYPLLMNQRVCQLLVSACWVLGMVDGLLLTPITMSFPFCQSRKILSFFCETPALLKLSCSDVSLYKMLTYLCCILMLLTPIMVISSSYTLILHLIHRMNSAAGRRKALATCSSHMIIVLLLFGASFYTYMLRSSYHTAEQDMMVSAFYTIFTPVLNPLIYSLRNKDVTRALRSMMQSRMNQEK
# In short: as §1
# O2T35 = test system: T6, O2T35
# T6 sequence (whole entry): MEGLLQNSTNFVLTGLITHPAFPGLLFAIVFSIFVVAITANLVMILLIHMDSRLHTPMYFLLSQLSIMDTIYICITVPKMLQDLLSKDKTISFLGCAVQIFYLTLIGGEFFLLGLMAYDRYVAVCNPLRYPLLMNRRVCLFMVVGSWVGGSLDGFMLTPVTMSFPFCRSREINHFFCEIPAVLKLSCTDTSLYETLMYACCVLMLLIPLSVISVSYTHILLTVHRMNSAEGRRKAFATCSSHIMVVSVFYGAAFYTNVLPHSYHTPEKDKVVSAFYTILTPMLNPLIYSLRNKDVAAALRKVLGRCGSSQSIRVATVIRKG
# In short: as §1
# O4A15 = test system: O4A15
# In short: as §1
# O4A47 = test system: T7, O4A47
# T7 sequence (whole entry): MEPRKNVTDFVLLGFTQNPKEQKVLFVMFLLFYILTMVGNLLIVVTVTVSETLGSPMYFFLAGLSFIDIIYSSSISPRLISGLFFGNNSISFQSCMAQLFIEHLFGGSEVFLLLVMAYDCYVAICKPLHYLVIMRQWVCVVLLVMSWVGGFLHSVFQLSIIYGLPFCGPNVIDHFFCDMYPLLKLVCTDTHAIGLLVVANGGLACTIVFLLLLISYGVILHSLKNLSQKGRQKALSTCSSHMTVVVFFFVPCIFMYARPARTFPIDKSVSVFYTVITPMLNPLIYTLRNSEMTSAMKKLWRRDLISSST
# In short: as §1
# O4C46 = test system: O4C46
# In short: as §1
# O4F17 [3] = test system: T8, O4F17
# T8 sequence (whole entry): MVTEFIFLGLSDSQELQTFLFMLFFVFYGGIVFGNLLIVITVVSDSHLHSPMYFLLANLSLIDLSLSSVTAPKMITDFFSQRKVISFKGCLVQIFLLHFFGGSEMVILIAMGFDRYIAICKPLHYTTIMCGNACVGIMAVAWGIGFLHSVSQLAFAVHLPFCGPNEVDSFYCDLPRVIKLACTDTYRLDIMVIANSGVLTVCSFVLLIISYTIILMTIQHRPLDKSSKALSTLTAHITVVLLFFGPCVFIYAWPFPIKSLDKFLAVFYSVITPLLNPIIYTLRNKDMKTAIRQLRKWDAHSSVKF
# In short: as §1
# O4F17 [4] = test system: T9, O4F17; remark: listed apart in the source
# T9 sequence (whole entry): T8 sequence (whole entry) with E15G, Q293R
# In short: as §1
# O4F21 = test system: T10, O4F21
# T10 sequence (whole entry): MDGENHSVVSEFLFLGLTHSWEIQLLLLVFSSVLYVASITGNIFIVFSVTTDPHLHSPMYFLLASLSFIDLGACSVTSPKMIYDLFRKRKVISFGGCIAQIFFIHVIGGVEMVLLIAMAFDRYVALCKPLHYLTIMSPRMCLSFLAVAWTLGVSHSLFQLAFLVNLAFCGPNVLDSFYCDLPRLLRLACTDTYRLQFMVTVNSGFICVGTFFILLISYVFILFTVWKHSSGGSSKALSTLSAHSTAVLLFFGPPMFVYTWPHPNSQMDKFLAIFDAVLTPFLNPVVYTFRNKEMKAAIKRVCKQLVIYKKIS
# In short: as §1
# O51A4 = test system: T11, O51A4
# T11 sequence (whole entry): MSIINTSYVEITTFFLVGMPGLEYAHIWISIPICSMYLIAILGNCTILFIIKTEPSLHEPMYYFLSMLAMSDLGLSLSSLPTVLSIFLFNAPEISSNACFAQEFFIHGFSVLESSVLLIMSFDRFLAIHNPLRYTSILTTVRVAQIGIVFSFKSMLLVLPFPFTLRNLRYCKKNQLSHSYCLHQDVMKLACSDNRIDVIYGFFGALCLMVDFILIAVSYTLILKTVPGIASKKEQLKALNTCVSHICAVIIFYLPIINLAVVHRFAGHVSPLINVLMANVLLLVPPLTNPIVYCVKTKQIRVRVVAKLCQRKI
# In short: as §1
# O51B4 = test system: T12, O51B4
# T12 sequence (whole entry): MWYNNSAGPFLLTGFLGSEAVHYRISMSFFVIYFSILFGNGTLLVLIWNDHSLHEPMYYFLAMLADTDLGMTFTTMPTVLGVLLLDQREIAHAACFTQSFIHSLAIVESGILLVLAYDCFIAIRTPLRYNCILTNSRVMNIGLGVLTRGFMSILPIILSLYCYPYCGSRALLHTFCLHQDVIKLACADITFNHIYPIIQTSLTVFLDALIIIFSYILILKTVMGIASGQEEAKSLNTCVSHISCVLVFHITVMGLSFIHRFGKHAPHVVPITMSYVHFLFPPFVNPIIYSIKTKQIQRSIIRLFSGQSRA
# In short: as §1
# O51B5 = test system: T13, O51B5
# T13 sequence (whole entry): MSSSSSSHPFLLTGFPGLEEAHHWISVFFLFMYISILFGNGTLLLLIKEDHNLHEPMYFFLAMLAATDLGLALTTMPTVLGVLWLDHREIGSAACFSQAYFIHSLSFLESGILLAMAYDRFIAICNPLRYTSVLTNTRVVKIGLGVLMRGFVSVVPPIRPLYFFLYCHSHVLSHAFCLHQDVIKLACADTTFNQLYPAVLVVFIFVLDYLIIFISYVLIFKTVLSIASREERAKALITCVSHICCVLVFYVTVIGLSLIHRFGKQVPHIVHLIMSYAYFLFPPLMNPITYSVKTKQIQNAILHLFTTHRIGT
# In short: as §1
# O51B6 = test system: T14, O51B6
# T14 sequence (whole entry): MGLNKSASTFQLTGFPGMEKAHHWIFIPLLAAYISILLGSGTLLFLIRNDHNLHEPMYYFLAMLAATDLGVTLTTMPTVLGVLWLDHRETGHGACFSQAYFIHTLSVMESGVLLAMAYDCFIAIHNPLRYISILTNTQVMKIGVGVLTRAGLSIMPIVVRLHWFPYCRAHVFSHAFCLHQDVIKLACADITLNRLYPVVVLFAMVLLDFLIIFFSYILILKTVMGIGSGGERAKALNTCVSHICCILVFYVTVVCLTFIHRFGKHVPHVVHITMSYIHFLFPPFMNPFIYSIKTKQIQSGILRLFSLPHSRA
# In short: as §1
# O51E1 = test system: T15, O51E1
# T15 sequence (whole entry): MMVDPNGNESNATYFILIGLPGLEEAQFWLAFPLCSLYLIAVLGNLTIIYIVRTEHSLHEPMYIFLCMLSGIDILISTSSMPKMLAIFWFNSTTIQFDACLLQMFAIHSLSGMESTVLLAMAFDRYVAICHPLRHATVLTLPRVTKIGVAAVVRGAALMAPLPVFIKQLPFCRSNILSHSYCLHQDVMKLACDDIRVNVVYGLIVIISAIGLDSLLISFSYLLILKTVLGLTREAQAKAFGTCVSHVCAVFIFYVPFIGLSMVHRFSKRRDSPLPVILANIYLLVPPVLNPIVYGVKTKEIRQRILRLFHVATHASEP
# In short: as §1
# O51F1 = test system: T16, O51F1
# T16 sequence (whole entry): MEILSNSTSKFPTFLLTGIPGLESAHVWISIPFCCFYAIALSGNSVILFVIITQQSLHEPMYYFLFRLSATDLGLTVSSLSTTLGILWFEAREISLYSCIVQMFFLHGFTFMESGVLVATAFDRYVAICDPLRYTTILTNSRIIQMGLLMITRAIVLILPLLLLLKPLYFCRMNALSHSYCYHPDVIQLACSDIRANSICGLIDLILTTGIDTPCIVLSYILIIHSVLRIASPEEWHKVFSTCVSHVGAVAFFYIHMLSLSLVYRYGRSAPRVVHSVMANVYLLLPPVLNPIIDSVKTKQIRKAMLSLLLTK
# In short: as §1
# O51F2 = test system: T17, O51F2
# T17 sequence (whole entry): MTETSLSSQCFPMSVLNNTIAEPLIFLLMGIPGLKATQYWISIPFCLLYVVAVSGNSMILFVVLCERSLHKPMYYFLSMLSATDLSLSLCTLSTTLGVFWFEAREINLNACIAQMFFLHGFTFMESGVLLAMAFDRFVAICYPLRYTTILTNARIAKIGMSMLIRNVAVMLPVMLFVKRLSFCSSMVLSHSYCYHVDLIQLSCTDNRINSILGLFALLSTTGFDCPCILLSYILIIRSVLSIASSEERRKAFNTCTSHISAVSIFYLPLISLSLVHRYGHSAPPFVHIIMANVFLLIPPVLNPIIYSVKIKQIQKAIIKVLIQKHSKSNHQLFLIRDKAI
# In short: as §1
Structure (SMILES),odorant receptor agonist call (O2T11),odorant receptor agonist call (O2T29 [1]),odorant receptor agonist call (O2T29 [2]),odorant receptor agonist call (O2T33),odorant receptor agonist call (O2T34),odorant receptor agonist call (O2T35),odorant receptor agonist call (O4A15),odorant receptor agonist call (O4A47),odorant receptor agonist call (O4C46),odorant receptor agonist call (O4F17 [3]),odorant receptor agonist call (O4F17 [4]),odorant receptor agonist call (O4F21),odorant receptor agonist call (O51A4),odorant receptor agonist call (O51B4),odorant receptor agonist call (O51B5),odorant receptor agonist call (O51B6),odorant receptor agonist call (O51E1),odorant receptor agonist call (O51F1),odorant receptor agonist call (O51F2)
CC(=O)OC(C)(C)C1CC=C(C)CC1 (stereo not drawn),inactive,inactive,inactive,inactive,inactive,inactive,inactive,inactive,inactive,inactive,active,inactive,inactive,inactive,inactive,active,inactive,inactive,inactive
CC(=O)C(C)=O,inactive,inactive,inactive,inactive,inactive,inactive,inactive,inactive,inactive,inactive,inactive,inactive,inactive,inactive,inactive,active,inactive,inactive,inactive
C=CCc1ccc(OC)c(OC)c1,inactive,inactive,inactive,inactive,inactive,inactive,inactive,inactive,inactive,inactive,inactive,inactive,inactive,inactive,inactive,inactive,inactive,inactive,inactive
CCCCCOC(C)=O,active,,inactive,inactive,active,active,inactive,inactive,inactive,inactive,inactive,inactive,inactive,inactive,inactive,active,inactive,inactive,inactive
CC(C)(O)CCCC1=CCC(C=O)CC1 (stereo not drawn),,,,inactive,,inactive,,inactive,,,active,inactive,,inactive,inactive,active,,,
